{"sequences": {"note": "Amino acid sequences for entries named in this document (tags omitted). A change or cut given only in a name is not applied to a line headed by its entry.", "UniProt P28221": "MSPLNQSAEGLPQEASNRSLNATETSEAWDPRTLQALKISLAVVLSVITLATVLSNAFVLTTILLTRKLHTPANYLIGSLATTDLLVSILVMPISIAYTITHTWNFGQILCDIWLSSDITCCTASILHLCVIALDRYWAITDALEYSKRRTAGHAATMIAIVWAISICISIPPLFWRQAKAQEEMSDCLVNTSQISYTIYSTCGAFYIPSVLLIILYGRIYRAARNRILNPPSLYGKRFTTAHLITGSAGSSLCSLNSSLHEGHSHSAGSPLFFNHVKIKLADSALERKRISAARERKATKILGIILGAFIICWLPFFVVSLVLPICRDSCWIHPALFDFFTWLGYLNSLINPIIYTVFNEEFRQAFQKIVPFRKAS", "UniProt P28222, whole entry": "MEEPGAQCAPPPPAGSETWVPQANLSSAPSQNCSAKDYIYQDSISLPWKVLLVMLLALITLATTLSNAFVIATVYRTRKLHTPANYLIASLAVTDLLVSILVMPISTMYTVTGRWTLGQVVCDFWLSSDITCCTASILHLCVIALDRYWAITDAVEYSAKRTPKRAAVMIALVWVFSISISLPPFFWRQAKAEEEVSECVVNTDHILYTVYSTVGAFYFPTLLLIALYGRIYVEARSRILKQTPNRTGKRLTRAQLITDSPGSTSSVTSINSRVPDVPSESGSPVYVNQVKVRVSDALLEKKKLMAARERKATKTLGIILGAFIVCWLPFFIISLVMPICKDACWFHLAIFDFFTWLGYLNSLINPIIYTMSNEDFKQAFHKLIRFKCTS"}, "source": "patent US6635639B2", "about": "“Use of N-alkylamino-heterocylic compounds for the treatment of migraine” (NPS Allelix Corp., priority 1998, dated 2003)", "note": "Some entries share one result that the patent states for a list of compounds. At least one compound was matched to its structure with a doubt left.", "data": [{"target": "T1, 5-HT1D receptor (Homo sapiens, UniProt P28221)", "T1 construct": "expressed in transfected cells", "assay": "Binding affinity, 3H-serotonin displacement from membranes of cells expressing 5-HT1D", "conditions": "selectivity comparison; receptor as printed", "method": "(§1) Selected compounds of the previous examples, as well as reference compounds, were evaluated for binding affinity using cell types receptive specifically to 5-HT1D and 5-HT1B ligands. The assay protocol generally entailed the incubation of membranes prepared from cells expressing the 5-HT1D or 5-HT1B subtype of 5-HT receptors with ^3H-serotonin (1 nM for 5-HT1D and 2.5 nM for 5-HT1B). Specific concentrations of the test compound were incubated with the radioligand and the membrane homogenates prepared from the recombinant cells. After a 60 minute incubation at 22° C., the incubation was terminated by vacuum filtration. The filters were washed with buffer and counted for radioactivity using liquid scintillation spectroscopy. The affinity of the test compound for the 5-HT1D receptor is expressed as the amount (in percent) of binding of the radioligand that is inhibited in the presence of 100 nM of test compound. A greater percent inhibition indicates greater affinity for the 5-HT1D receptor.", "units": {"percent inhibition at the 5-HT1D receptor (second value of the selectivity sentence, 'less 25%')": "%"}, "values": [{"smiles": "CCN(CC)CCn1ccc2ccc(C3CCSCC3)cc21", "note": "[Example 5e, 1-(2-(N,N-diethylamino)ethyl)-6-(tetrahydrothiopyran-4-yl)-1H-indole]", "percent inhibition at the 5-HT1D receptor (second value of the selectivity sentence, 'less 25%')": "< 25"}, {"smiles": "CN(C)CCn1ccc2ccc(C3(O)CCOCC3)cc21", "note": "[Example 6, 6-(4-hydroxy-tetrahydropyran-4-yl)-1-(2-(N,N-dimethylamino)ethyl)-1H-indole]", "percent inhibition at the 5-HT1D receptor (second value of the selectivity sentence, 'less 25%')": "< 25"}, {"smiles": "c1cc(-c2ccc3cnn(CCNC4CC4)c3c2)cs1", "note": "[Example 9p, 1-(2-(N-cyclopropylamino)ethyl)-6-(3-thienyl)-1H-indazole]", "percent inhibition at the 5-HT1D receptor (second value of the selectivity sentence, 'less 25%')": "< 25"}, {"smiles": "CN(C)CCn1ccc2ccc(-c3cccs3)cc21", "note": "[Example 10t, 1-(2-(N,N-dimethylamino)ethyl)-6-(2-thienyl)-1H-indole]", "percent inhibition at the 5-HT1D receptor (second value of the selectivity sentence, 'less 25%')": "< 25"}, {"smiles": "CN(C)CCn1ncc2ccc(-c3ccncc3)cc21", "note": "[Example 12, 1-(2-(N,N-dimethylamino)ethyl)-6(4-pyridinyl)-1H-indazole]", "percent inhibition at the 5-HT1D receptor (second value of the selectivity sentence, 'less 25%')": "< 25"}, {"smiles": "CCN(CC)CCn1ncc2ccc(C3CCSCC3)cc21", "note": "[Example 16d, 1-(2-(N,N-diethylamino)ethyl)-6-(tetrahydrothiopyran-4-yl)-1H-indazole]", "percent inhibition at the 5-HT1D receptor (second value of the selectivity sentence, 'less 25%')": "< 25"}, {"smiles": "CN1CCC[C@@H]1Cn1ncc2ccc(-c3ccsc3)cc21", "note": "[Example 21]", "percent inhibition at the 5-HT1D receptor (second value of the selectivity sentence, 'less 25%')": "< 25"}]}, {"target": "T2, 5-HT1B receptor (Homo sapiens, UniProt P28222)", "T2 construct": "expressed in transfected cells", "assay": "Binding affinity, 3H-serotonin displacement from membranes of cells expressing 5-HT1B", "conditions": "3H-serotonin 2.5 nM; selectivity comparison", "method": "as §1", "values": [{"smiles": "C1=CCN(CCCn2ncc3ccc(-c4ccsc4)cc32)C1", "note": "[Example 19c, 1-(3-(N-pyrrolin-3-yl)propyl)-6-(3-thienyl)-1H-indazole]", "percent inhibition at the 5-HT1B receptor": "< 15%"}, {"smiles": "CN1CCC[C@@H]1Cn1ncc2ccc(-c3ccsc3)cc21", "note": "[Example 21]", "percent inhibition at the 5-HT1B receptor": "less than 50%"}]}]}
